Reference: patent US6472515
Construct, isoform or probe ends are uncertain for at least one entry. Results from cells or extracts need not show a direct contact.

Chains of the proteins cited; added tags and fusions are not shown. Residues count along the entry.
UniProt P98177, 86-211: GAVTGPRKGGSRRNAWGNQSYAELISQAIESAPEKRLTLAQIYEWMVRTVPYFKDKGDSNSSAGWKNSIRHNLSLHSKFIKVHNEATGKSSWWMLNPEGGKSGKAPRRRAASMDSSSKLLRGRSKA

target: GST-AfxDBD (Afx/FOXO4 fork head DNA binding domain) (Homo sapiens) (UniProt P98177); test: SELEX; conditions: consensus of 20 selected sequences; protein in a lysate after overexpression; protein details: N-terminal GST (pGEX-2T-KB), E. coli extract

Selection result, selected:
GGGTAAACATGTTGT (double strand) [Afx consensus]

same assay, conditions: protein in a lysate after overexpression; protein details: N-terminal GST (pGEX-2T-KB), E. coli extract

Selection result, selected:
GCCCCACTCCATAACATGTTGTTC (double strand) [Afx selected 1]

same assay, conditions: six rounds, as above; protein in a lysate after overexpression; protein details: N-terminal GST (pGEX-2T-KB), E. coli extract

Selection result, selected:
GGTACATACGGTAAACATGTTGTGC (double strand) [Afx selected 18]
GGCAGCGGTAAACATGTTGTCTCCC (double strand) [Afx selected 11]
GGCAGGACGGTACACAAACATGTTG (double strand) [Afx selected 9]
GGCATCAACATGTTTATAATGGGTG (double strand) [Afx selected 10]
GGCGGGGACTCGGGTAAACATGTTG (double strand) [Afx selected 13]
GGCATAGCTCTGTGTAAACATGTTG (double strand) [Afx selected 8]
GGCCCACGGTCAACATGTTTTGATG (double strand) [Afx selected 12]
GGGCGGGATAAACATGTTATGCTCC (double strand) [Afx selected 16]
GGCCGACTATCAACATGTTTGCCTG (double strand) [Afx selected 3]
GGAGCATAAACATGTTGTTGGCGGC (double strand) [Afx selected 14]
GGTAGGCAGCACAACATGTTTACCC (double strand) [Afx selected 17]
GGCGGGAGGTGTCAACATGTTGTGC (double strand) [Afx selected 6]
GGCACCCGCAGTAAACATGTTATGC (double strand) [Afx selected 7]
GGCCGCGGATAACAACATGTTGTTG (double strand) [Afx selected 2]
GGACGGTAGGGGAGTAAACATGTTG (double strand) [Afx selected 5]
GGGCCCAGGCATAAACATGTTGTTG (double strand) [Afx selected 20]
GGGAGCCCCATAACATGTTTTCACG (double strand) [Afx selected 19]
